Source: the supplement of paper PMC8728848
This is one part of the list.

Legend:
Test in all cases: glycan array binding signal (z-score within array); higher = stronger binding
Conditions in all cases: glycan notation: IUPAC condensed, linker removed
[1] = target: Fuc(a1-2)Gal
How it was run: (§1)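 From the Consortium for Functional Glycomics database, 3228 arrays were curated, keeping only those whose protein sequence was available. Binding is given as a within-array Z-score averaged across arrays sharing a protein sequence and across linkers. Negative Z-scores can be read as non-binding.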

[2] = target: Fuc(a1-2)Gal(b1-3)GalNAc
How it was run: as §1

[3] = target: Fuc(a1-2)Gal(b1-3)GalNAc(a1-3)[Fuc(a1-2)]Gal(b1-4)Glc
How it was run: as §1

[4] = target: Fuc(a1-2)Gal(b1-3)GalNAc(a1-3)[Fuc(a1-2)]Gal(b1-4)GlcNAc
How it was run: as §1

[5] = target: Fuc(a1-2)Gal(b1-3)GalNAc(b1-3)Gal
How it was run: as §1

[6] = target: Fuc(a1-2)Gal(b1-3)GalNAc(b1-3)Gal(a1-4)Gal(b1-4)Glc
How it was run: as §1

[7] = target: Fuc(a1-2)Gal(b1-3)GalNAc(b1-4)[Neu5Ac(a2-3)]Gal(b1-4)Glc
How it was run: as §1

[8] = target: Fuc(a1-2)Gal(b1-3)GlcNAc
How it was run: as §1

[9] = target: Fuc(a1-2)Gal(b1-3)GlcNAc(b1-2)Man(a1-3)[Fuc(a1-2)Gal(b1-3)GlcNAc(b1-2)Man(a1-6)]Man(b1-4)GlcNAc(b1-4)GlcNAc
How it was run: as §1

[10] = target: Fuc(a1-2)Gal(b1-3)GlcNAc(b1-2)Man(a1-3)[Fuc(a1-2)Gal(b1-3)GlcNAc(b1-2)Man(a1-6)]Man(b1-4)GlcNAc(b1-4)[Fuc(a1-6)]GlcNAc
How it was run: as §1

[11] = target: Fuc(a1-2)Gal(b1-3)GlcNAc(b1-3)Gal(b1-4)Glc
How it was run: as §1

[12] = target: Fuc(a1-2)Gal(b1-3)GlcNAc(b1-3)GalNAc
How it was run: as §1

[13] = target: Fuc(a1-2)Gal(b1-3)GlcNAc(b1-3)[Fuc(a1-2)Gal(b1-3)GlcNAc(b1-6)]GalNAc
How it was run: as §1

[14] = target: Fuc(a1-2)Gal(b1-3)GlcNAc(b1-3)[Gal(b1-4)GlcNAc(b1-6)]Gal(b1-4)Glc
How it was run: as §1

[15] = target: Fuc(a1-2)Gal(b1-3)GlcNAc(b1-3)[Neu5Ac(a2-6)Gal(b1-4)GlcNAc(b1-6)]Gal(b1-4)Glc
How it was run: as §1

[16] = target: Fuc(a1-2)Gal(b1-3)GlcNAc6S
How it was run: as §1

[17] = target: Fuc(a1-2)Gal(b1-3)[Fuc(a1-4)]GlcNAc
How it was run: as §1

[18] = target: Fuc(a1-2)Gal(b1-3)[Fuc(a1-4)]GlcNAc(b1-2)Man(a1-3)[Fuc(a1-2)Gal(b1-3)[Fuc(a1-4)]GlcNAc(b1-2)Man(a1-3)]Man(b1-4)GlcNAc(b1-4)GlcNAc
How it was run: as §1

[19] = target: Fuc(a1-2)Gal(b1-3)[Fuc(a1-4)]GlcNAc(b1-2)Man(a1-3)[Fuc(a1-2)Gal(b1-3)[Fuc(a1-4)]GlcNAc(b1-2)Man(a1-6)]Man(b1-4)GlcNAc(b1-4)[Fuc(a1-6)]GlcNAc(b1-4)[Fuc(a1-6)]GlcNAc
How it was run: as §1

[20] = target: Fuc(a1-2)Gal(b1-3)[Fuc(a1-4)]GlcNAc(b1-3)[Fuc(a1-3)[Gal(b1-4)]GlcNAc(b1-6)]Gal(b1-4)Glc
How it was run: as §1

[21] = target: Fuc(a1-2)Gal(b1-3)[Fuc(a1-4)]GlcNAc(b1-3)[Gal(b1-4)GlcNAc(b1-6)]Gal(b1-4)Glc
How it was run: as §1

[22] = target: Fuc(a1-2)Gal(b1-4)Glc
How it was run: as §1

[23] = target: Fuc(a1-2)Gal(b1-4)Glc6S
How it was run: as §1

[24] = target: Fuc(a1-2)Gal(b1-4)GlcNAc
How it was run: as §1

[25] = target: Fuc(a1-2)Gal(b1-4)GlcNAc(b1-2)Man
How it was run: as §1

[26] = target: Fuc(a1-2)Gal(b1-4)GlcNAc(b1-2)Man(a1-3)[Fuc(a1-2)Gal(b1-4)GlcNAc(b1-2)Man(a1-6)]Man(b1-4)GlcNAc(b1-4)GlcNAc
How it was run: as §1

[27] = target: Fuc(a1-2)Gal(b1-4)GlcNAc(b1-2)Man(a1-3)[Fuc(a1-2)Gal(b1-4)GlcNAc(b1-2)Man(a1-6)]Man(b1-4)GlcNAc(b1-4)[Fuc(a1-6)]GlcNAc
How it was run: as §1

[28] = target: Fuc(a1-2)Gal(b1-4)GlcNAc(b1-2)[Fuc(a1-2)Gal(b1-4)GlcNAc(b1-4)]Man(a1-3)[Fuc(a1-2)Gal(b1-4)GlcNAc(b1-2)Man(a1-6)]Man(b1-4)GlcNAc(b1-4)GlcNAc
How it was run: as §1

[29] = target: Fuc(a1-2)Gal(b1-4)GlcNAc(b1-3)Gal(b1-4)GlcNAc
How it was run: as §1

[30] = target: Fuc(a1-2)Gal(b1-4)GlcNAc(b1-3)Gal(b1-4)GlcNAc(b1-2)Man(a1-3)[Fuc(a1-2)Gal(b1-4)GlcNAc(b1-3)Gal(b1-4)GlcNAc(b1-2)Man(a1-6)]Man(b1-4)GlcNAc(b1-4)GlcNAc
How it was run: as §1

B1: Awp1 (Candida glabrata) (protein)
chain: MSLITIFAFLIKATLVLSLDILTPTTLTGDQTFNEDVSVVSSLTLNDGSQYLFNNLLQIAPSSASVTANALAAVSVFTFSLPPSSSLSNSGTLIISNSNTGPSTEQHIVITPNVMANTGTITLSLAHTNTDSSSTLIIDPVTFYNTGTINYESIGSETNDPSLTGNILSIGSSGRTLQNLGTINLNAANSYYLLGTITENSGSINVQKGFLYVNALDFIGNTINLSTTTALAFISPVSQVVRVRGVFFGNIIASVGSSGTFSYNTQTGILTVTTNGVYSYDIGCGYNPALMSGQQETLSFQGNPYDTFLVLVNQPIPSDLTCAAVSSSITPSSSVEPSSSVVPSSSVEPSSSVEPSSSVEPSSSVEPSSSVEPSSSVEPSSSVEPSSSVEPSSSVEPSSSVEPSSSVEPSSSVEPSSSVEPSSSVEPSSSVEPSSSVEPSSSVEPSSSVEPSSSVEPSSLIVPSSSVEPSSSVLPSSSVVPSSSVEPSTPPIPSSSVEPSSSVVPSSPAVPSSSVEPSTPPIPSSSVVSASVFDTSSTLPSSPSVPPSSVSPSTISTPSSSAAPSSFCPTCVSSGTPPAPSSSAIVPTSSAGGGNGGDNREPGAAGQPGAAGQPGAAGQPGAAGQPGAAGQPGAAGQPGAAGQPGAAGQPGAAGQPGAAGQPGAGFGVGSEQPTPGAGAGSGSADGNQSGTGSGTGNGQQGSGQAGSGQAGSGQEGSGQAGSGQAGSGQAGSGQAGSGQAGLDNTASGQSEGGQASAMDGDQSGRDGQSNSGSLLQPNAQQGTGSGTGSDIGADQASGESPGQIGDAQPGSGTDQSSGRHSLAAEARTSQSHSLAADARTRSTTRQTSVIAPDTAPGTASGTAPGTAPGTAVVTTFHGCGTVNHKGMINILLALALLVLL
In the case of B1, the “glycan array binding signal (z-score)” value [1] is reported as -0.353, the “glycan array binding signal (z-score)” value [2] is reported as -0.005 and the “glycan array binding signal (z-score)” value [3] is reported as 0.542. The “glycan array binding signal (z-score)” value [4] was 0.588, the “glycan array binding signal (z-score)” value [5] was 0.579 and the “glycan array binding signal (z-score)” value [6] was -0.191. The “glycan array binding signal (z-score)” value [7] was 0.598, the “glycan array binding signal (z-score)” value [8] was -0.289 and the “glycan array binding signal (z-score)” value [9] was 3.11. For the same binder, the “glycan array binding signal (z-score)” value [10] was -0.776, the “glycan array binding signal (z-score)” value [11] was -0.568 and the “glycan array binding signal (z-score)” value [12] was -0.915. The “glycan array binding signal (z-score)” value [13] was -1.05, the “glycan array binding signal (z-score)” value [14] was 0.987 and the “glycan array binding signal (z-score)” value [15] was 1.26. For the same binder, the “glycan array binding signal (z-score)” value [16] was -0.994, the “glycan array binding signal (z-score)” value [17] was 0.456 and the “glycan array binding signal (z-score)” value [18] was 1.49. For the same binder, the “glycan array binding signal (z-score)” value [19] was 0.861, the “glycan array binding signal (z-score)” value [20] was -1.7 and the “glycan array binding signal (z-score)” value [21] was 2.29. For the same binder, the “glycan array binding signal (z-score)” value [22] was -0.673, the “glycan array binding signal (z-score)” value [23] was -0.401 and the “glycan array binding signal (z-score)” value [24] was -0.027. The “glycan array binding signal (z-score)” value [25] was 0.701, the “glycan array binding signal (z-score)” value [26] was 1.05 and the “glycan array binding signal (z-score)” value [27] was -0.474. The “glycan array binding signal (z-score)” value [28] was 0.228, the “glycan array binding signal (z-score)” value [29] was 0.691 and the “glycan array binding signal (z-score)” value [30] was -1.39.
